Measurements reported in paper PMC8184991.
No constants are given. Whether binding was seen depends on the method and setting. Binding seen in cells or lysates may run through a third protein. Binding calls can cover weak binding; strength is not graded here.

Protein sequences, listed by entry. Tags and fused reporters are not part of them. Lines headed by an entry give the natural chain unless they say otherwise; changes in a name come on top.
UniProt O95409: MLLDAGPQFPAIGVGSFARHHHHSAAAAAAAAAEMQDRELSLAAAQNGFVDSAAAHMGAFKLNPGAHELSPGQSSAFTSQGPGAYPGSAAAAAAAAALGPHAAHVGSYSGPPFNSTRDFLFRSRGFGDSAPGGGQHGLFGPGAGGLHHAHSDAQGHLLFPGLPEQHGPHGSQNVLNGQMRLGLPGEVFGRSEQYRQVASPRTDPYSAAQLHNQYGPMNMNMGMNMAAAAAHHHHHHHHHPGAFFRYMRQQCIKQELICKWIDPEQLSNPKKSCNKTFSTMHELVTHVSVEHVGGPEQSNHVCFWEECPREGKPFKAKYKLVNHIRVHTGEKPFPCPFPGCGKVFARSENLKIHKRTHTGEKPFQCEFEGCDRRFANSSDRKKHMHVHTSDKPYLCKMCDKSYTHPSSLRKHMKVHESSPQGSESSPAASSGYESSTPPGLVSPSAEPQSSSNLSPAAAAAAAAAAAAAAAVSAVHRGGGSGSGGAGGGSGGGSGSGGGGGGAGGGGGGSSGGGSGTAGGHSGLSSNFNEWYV
UniProt P35222: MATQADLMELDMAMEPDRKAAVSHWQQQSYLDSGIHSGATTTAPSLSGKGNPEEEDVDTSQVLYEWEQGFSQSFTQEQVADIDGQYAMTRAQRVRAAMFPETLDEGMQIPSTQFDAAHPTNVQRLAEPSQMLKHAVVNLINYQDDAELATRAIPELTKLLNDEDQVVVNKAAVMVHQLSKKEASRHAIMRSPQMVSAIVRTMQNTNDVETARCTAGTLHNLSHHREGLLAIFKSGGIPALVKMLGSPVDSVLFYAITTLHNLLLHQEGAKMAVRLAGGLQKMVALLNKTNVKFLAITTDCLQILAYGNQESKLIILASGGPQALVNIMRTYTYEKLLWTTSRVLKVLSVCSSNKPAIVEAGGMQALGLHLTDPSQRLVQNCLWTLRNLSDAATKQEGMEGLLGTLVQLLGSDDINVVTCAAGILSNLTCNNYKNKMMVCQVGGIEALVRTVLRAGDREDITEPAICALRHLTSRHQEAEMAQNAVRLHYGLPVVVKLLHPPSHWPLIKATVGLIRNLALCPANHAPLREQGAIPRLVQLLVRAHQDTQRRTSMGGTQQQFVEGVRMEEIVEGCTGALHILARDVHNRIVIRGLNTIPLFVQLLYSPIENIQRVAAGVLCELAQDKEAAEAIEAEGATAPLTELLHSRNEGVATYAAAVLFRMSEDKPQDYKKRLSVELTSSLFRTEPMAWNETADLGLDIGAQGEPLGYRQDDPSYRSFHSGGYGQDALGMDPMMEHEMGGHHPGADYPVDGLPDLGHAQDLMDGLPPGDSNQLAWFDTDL

Molecular target: Zinc-finger of the cerebellum 2 (Zic2) (human (endogenous in DLD-1, SW480, HCT116)) (UniProt O95409)
Experiment: co-IP; lysates of DLD-1, SW480 and HCT116 cells in Triton X-100 lysis buffer (150 mM NaCl, 0.5% NP-40, Tris-HCl pH 8.0, glycerol) with phosphatase and protease inhibitors; Thermo Scientific Pierce Co-IP kit; detected by western blot

binding: binds
Substance: β-catenin of HCT116 cells (in-frame deletion at Ser45) (from UniProt P35222)
